# Screening data, single-dose tests

Source: ChEMBL document CHEMBL3988442, “University of Dundee, Small-Polar-MMV Screening Library” (2021).

The filed quantity is “Percent Effect” (%).
How 0% and 100% were set is not recorded. Most values in the screen are low, and negative values occur.
Compounds were drawn at random from those tested, without regard to their results.

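Assay of Toxoplasma gondii numbers, read through their beta-galactosidase reporter with a colour substrate. Concentration: 50 µM. Higher reads as fewer parasites (inferred from which compounds were picked for retests). Of about 18,000 compounds tested this way, about 170 (0.94%) reached 50% or more in at least one test.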

SMILES: Cc1ccc(S(=O)(=O)NCC(C)(C)N)c2cccnc12
percent effect: -6.141

SMILES: Nc1ccc(-c2ccc(CN3CCCCC3)cn2)cn1
percent effect: 3.87

SMILES: CC(C)n1nccc1[C@H]1OCC[C@@H]1N
percent effect: -0.4203

SMILES: NCCNC(=O)c1ccc(C(F)(F)F)cc1
percent effect: -3.852

SMILES: COC(=O)c1cccc(CN2CCCC2CO)c1C#N (stereo unspecified)
percent effect: -13.16

SMILES: Cn1cc(C(=O)NC2CCS(=O)(=O)C2)c2ccccc21 (stereo unspecified)
percent effect: -21.36

SMILES: O=C1NCCCC1NCc1cccc2c1OCCCO2 (stereo unspecified)
percent effect: -4.689

SMILES: O=C(CN1CCC(CO)CC1)NCC1CCCO1 (stereo unspecified)
percent effect: 4.163

SMILES: N#Cc1cccc(S(=O)(=O)NCCc2ccccn2)c1
percent effect: -2.75

SMILES: CCc1nc(C2CCCN2)no1 (stereo unspecified)
percent effect: 2.411

SMILES: COc1cccc(N2CCC(CN)C2)c1 (stereo unspecified)
percent effect: -7.933

SMILES: CN(Cc1ccco1)C(=O)c1cc(C2CC2)[nH]n1
percent effect: 6.05

SMILES: COCCNCCOc1ccc(C)cc1
percent effect: 1.56

SMILES: COc1ccc([C@H]2OCC[C@@H]2N)cn1
percent effect: -5.148

SMILES: CC(NC(=O)c1ccco1)C(=O)Nc1ncccc1Br (stereo unspecified)
percent effect: -9.21

SMILES: CS(=O)(=O)NCCNCc1cnc(-c2cccs2)s1
percent effect: 3.156

SMILES: CN(CCC#N)C(=O)CSc1ccc2c(c1)OCCO2
percent effect: -0.9914

SMILES: COC(=O)c1cnc(O)cn1
percent effect: 0.4239

SMILES: OCCc1cn(Cc2ccccc2)nn1
percent effect: -7.848

SMILES: c1cnn(CCCNCCCn2cccn2)c1
percent effect: 0.4357

SMILES: CCSc1cc(CN)ccn1
percent effect: -10.09

SMILES: C[C@@H]1CN(C(=O)c2cc(F)cc(C#N)c2)C[C@]1(C)O
percent effect: 97.61

SMILES: Cc1cccnc1NCCNC(=O)C1=NNC(=O)CC1
percent effect: -12.65

SMILES: NCCc1ccc(N2CCOCC2)c(F)c1
percent effect: -11.25

SMILES: CC(C)=CCN1CCN(S(=O)(=O)CCOC(C)C)CC1
percent effect: -22.45

SMILES: CC[C@@H](N)c1ccc(F)cc1
percent effect: 2.813

SMILES: CC(=O)N1CCN(Cc2cc(C#N)cs2)C(C)(C)C1
percent effect: -8.893

SMILES: COCCN(C)C[C@@H]1CN(C(=O)C2CCC2)C[C@@H]1CO
percent effect: 20.86

SMILES: Cn1c(CO)nnc1SCC=Cc1ccccc1
percent effect: -2.559

SMILES: Cc1cc(C)c2nc(CN3CCC(N)C3)cc(O)c2c1 (stereo unspecified)
percent effect: 5.288

SMILES: CCn1c(C)nnc1Cn1cc(Br)cc(C)c1=O
percent effect: 9.429

SMILES: O=C(CNC1=NCCN1)Nc1cccc(F)c1
percent effect: -24.4

SMILES: NCCc1ccnc2ccccc12
percent effect: -6.442

SMILES: O=S1(=O)CCN(Cc2nccn2C2CC2)CC1
percent effect: -7.421

SMILES: CCO[C@@H]1CNC[C@H]1CNC(=O)OC(C)(C)C
percent effect: -13.53

SMILES: CN1CCN(CC(=O)Nc2cccc(Cl)c2Cl)CC1
percent effect: 5.314

SMILES: O=C(CN1CCC(C(F)(F)F)CC1)N1CCNC1=O
percent effect: -3.897

SMILES: CNC(=O)CN(c1cccc2ccccc12)S(C)(=O)=O
percent effect: -1.639

SMILES: Cc1n[nH]c(SCC(=O)Nc2ccccn2)n1
percent effect: -36.98

SMILES: N#CC1(C(=O)NCc2ccccc2F)CC1
percent effect: 7.126

SMILES: O=C(NC1CCCCC1)C1CCOCC1
percent effect: -6.752

SMILES: CNC(=O)CN(C)C(=O)Cc1c[nH]c2ccccc12
percent effect: 2.87

SMILES: Cc1c(NC(N)=O)c(=O)n(-c2ccccc2)n1C
percent effect: 2.382

SMILES: CC(C(=O)Nc1sccc1C(N)=O)N1CCCCC1 (stereo unspecified)
percent effect: -8.811

SMILES: CCC(O)COc1cc(C)ccc1C(N)=O (stereo unspecified)
percent effect: -1.756

SMILES: CC(C)C(N)c1nc(-c2ccncc2)no1 (stereo unspecified)
percent effect: 2.942

SMILES: CC1CCCCN1CC(=O)NC1(C#N)CCCC1 (stereo unspecified)
percent effect: -0.106

SMILES: Cc1nn(CCO)c(C)c1CNC1CCCCNC1=O (stereo unspecified)
percent effect: 20.45

SMILES: CCOC(=O)CNC(=O)c1nc2ncccn2n1
percent effect: 0.2543

SMILES: CN(C)C(CNC(=O)NCc1cc[nH]n1)c1cccs1 (stereo unspecified)
percent effect: -4.555

SMILES: CC(C)Oc1cc(CNC2CC2)ccn1
percent effect: -8.923

SMILES: COCCN(CCC#N)S(=O)(=O)c1ncn(C)c1Cl
percent effect: 2.241

SMILES: COc1ccc2c(c1)OCC(CNC(=O)C(C)(C)N)C2 (stereo unspecified)
percent effect: -3.392

SMILES: NC1=NN=C(c2ccc(Br)cc2)CS1
percent effect: -9.248

SMILES: COc1ccnc(NCc2ccc3c(c2)OCCO3)n1
percent effect: 13.41

SMILES: CS(=O)(=O)N(CCC1CCCO1)c1ccc(C#N)cc1 (stereo unspecified)
percent effect: 0.4026

SMILES: Nc1nnc(SCc2cn3ccccc3n2)s1
percent effect: -6.062

SMILES: O=C(COCC(F)(F)F)NCc1ccccn1
percent effect: 6.832